In experiment [1] the target is T1, TRIM1 (endogenous) (human (endogenous in SW480)) (UniProt Q9UJV3).
T1 sequence: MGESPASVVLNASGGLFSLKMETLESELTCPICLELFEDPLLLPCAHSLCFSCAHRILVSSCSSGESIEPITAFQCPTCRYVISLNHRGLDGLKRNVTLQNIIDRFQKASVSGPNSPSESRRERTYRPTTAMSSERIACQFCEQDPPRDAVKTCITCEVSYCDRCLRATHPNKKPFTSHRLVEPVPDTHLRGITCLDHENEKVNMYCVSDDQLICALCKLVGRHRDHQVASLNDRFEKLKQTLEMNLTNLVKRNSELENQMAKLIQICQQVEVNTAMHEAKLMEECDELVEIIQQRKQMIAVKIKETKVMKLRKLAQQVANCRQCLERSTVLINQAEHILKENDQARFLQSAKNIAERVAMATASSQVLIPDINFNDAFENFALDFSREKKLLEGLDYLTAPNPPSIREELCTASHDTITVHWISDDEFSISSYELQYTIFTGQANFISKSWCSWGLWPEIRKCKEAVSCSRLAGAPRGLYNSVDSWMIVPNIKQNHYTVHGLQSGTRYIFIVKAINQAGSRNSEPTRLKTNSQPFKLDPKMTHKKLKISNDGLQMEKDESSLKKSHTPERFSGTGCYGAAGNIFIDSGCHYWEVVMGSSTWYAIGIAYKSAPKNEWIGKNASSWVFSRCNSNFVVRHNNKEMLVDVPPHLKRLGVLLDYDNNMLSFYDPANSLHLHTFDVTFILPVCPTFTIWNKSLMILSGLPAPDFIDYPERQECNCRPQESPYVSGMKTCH
As to the kind of experiment: co-IP; endogenous proteins of SW480 cells; lysed in buffer A; anti-TRIM1 immunoprecipitation, immunoblotting.

Chains of the proteins cited; added tags and fusions are not shown. Lines headed by an entry give the natural chain unless they say otherwise; changes in a name come on top.
UniProt Q16665: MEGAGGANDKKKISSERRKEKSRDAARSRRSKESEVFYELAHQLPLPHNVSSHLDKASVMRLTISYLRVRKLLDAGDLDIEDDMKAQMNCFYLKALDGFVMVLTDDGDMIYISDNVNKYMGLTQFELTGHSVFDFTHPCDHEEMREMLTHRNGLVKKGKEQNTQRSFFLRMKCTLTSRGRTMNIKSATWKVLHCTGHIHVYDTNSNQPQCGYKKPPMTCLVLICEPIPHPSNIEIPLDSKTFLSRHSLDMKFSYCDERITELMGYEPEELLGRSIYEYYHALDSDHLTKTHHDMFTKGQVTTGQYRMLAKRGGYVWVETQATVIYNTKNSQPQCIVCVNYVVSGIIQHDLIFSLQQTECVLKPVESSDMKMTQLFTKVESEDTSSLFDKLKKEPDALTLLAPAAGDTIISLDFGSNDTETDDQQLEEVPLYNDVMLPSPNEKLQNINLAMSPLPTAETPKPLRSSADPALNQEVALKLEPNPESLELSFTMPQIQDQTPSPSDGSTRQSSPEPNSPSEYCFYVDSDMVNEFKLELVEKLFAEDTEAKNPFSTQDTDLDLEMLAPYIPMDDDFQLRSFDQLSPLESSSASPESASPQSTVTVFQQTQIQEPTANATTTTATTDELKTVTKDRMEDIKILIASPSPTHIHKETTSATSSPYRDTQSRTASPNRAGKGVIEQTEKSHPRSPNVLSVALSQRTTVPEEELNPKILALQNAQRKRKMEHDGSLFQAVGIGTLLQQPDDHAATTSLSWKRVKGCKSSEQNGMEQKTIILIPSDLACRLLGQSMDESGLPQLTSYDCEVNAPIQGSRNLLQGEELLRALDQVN

Experiment [2] deals with T2, Flag-TRIM1 (wild type, full length) (human (cDNA from SW480 cells)) (UniProt Q9UJV3).
T2 sequence: T1 sequence
Briefly: co-IP; SW480 cells co-transfected with the indicated plasmids; lysed in buffer A (25 mM Tris-HCl pH 7.5, 150 mM NaCl, 10% glycerol, 1% Triton X-100, protease inhibitors); anti-Flag or anti-GFP immunoprecipitation, four washes, immunoblotting. (A western blot detects proteins with antibodies after separation by electrophoresis.)

No constants are given. Whether binding was seen depends on the method and setting. In cells and extracts the contact can be indirect. Some binding calls cover weakened binding; strength is not graded here. For part of these data: Sequences can lack the tags named with a protein.

Three substances from publication PMC11106307 can be followed below.

For the substance “HIF1α (endogenous) (from UniProt Q16665 1-826)”, the binding entry in experiment [1] was “binds”.
Turning to “GFP-HIF1α K214R (from UniProt Q16665 1-826)”, in experiment [2], the binding entry is “binds”.
For “GFP-HIF1α (wild type) (from UniProt Q16665 1-826)”, the binding entry in experiment [2] is “binds”.
